This passage reports binding results from PMC11212238.

These are yes or no findings as the source states them, for the method shown. Binding seen in cells or lysates may run through a third protein. A result given as binding can be weak or reduced; the word gives no strength.

The target of this assay is T1, RAB11B (human (endogenous in SH-SY5Y)) (UniProt Q15907).
T1 sequence: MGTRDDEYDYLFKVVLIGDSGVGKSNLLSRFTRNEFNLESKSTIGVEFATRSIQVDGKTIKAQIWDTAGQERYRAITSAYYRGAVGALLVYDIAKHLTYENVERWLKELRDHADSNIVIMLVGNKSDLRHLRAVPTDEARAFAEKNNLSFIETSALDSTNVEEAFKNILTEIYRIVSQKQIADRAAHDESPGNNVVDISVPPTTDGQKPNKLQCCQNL
As to the kind of experiment: proximity ligation; Duolink In Situ Red kit on fixed, permeabilised SH-SY5Y cells infected with EV-A71 S41 (MOI 0.1), 24 h.p.i.; uninfected cells too for CCT8 with RAB11A; pairs of mouse and rabbit primary antibodies.
As for EV-A71 3C, the binding entry was “binds”. For the substance EV-A71 VP1, the binding entry was “binds”. As for EV-A71 VP2, the binding entry was “binds”.
